Results are given in words; binding and its absence hold for the method and conditions named. In cells and extracts the contact can be indirect. Some binding calls cover weakened binding; strength is not graded here. One block for each molecule: values may come before it.
Legend:
CCDC25 = target: T1, CCDC25 (UniProt Q86WR0); test: co-IP; 293T cell lysates prepared by weak RIPA lysis; immunoprecipitated by CCDC25 antibody, IgG as negative control
T1 sequence: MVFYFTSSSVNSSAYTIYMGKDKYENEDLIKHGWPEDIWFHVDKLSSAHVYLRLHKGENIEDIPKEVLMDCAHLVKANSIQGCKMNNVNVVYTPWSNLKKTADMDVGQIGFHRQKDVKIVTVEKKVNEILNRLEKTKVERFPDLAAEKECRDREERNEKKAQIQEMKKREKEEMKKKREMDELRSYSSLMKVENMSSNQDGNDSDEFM

Sequences of proteins named here, by UniProt entry; tags and fusion partners are left off.
UniProt P46937: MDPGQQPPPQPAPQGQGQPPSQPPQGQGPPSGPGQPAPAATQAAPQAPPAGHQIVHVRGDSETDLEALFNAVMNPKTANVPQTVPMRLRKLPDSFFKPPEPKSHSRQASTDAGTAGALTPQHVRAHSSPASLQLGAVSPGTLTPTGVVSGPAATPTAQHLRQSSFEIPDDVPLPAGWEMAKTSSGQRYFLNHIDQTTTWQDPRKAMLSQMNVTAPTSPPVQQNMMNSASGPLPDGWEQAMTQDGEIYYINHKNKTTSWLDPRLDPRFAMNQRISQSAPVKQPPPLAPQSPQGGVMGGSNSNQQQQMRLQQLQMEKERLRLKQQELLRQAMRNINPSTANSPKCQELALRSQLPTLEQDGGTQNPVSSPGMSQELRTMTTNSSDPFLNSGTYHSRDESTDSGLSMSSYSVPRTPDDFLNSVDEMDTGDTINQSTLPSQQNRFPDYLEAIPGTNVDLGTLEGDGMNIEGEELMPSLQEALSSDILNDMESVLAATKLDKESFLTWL

YAP1-Flag = YAP1-Flag (UniProt P46937); test: co-IP; 293T cell lysates prepared by weak RIPA lysis; immunoprecipitated by YAP1-Flag, IgG as negative control; with and without overexpression of CCDC25

binding (CCDC25): binds
Molecule: YAP (from UniProt P46937 1-504)

binding (YAP1-Flag): binds
B1: CCDC25 (protein, UniProt Q86WR0 1-208)
chain: T1 sequence

From paper PMC10988808
